# Source: PMC12435150
# Chains of the proteins cited; added tags and fusions are not shown. Residues count along the entry.
# UniProt O89109: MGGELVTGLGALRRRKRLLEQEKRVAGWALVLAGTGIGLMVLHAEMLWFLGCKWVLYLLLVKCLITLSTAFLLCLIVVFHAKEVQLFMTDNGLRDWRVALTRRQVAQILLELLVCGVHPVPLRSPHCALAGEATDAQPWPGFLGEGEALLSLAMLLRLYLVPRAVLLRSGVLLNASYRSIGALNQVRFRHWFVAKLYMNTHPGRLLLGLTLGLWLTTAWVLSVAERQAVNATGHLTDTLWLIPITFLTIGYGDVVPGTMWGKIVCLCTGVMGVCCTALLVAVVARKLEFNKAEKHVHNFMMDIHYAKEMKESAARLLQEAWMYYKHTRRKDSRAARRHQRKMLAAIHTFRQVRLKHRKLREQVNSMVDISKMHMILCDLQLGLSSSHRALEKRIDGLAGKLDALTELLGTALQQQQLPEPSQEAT
# UniProt P70302, residues 23-685: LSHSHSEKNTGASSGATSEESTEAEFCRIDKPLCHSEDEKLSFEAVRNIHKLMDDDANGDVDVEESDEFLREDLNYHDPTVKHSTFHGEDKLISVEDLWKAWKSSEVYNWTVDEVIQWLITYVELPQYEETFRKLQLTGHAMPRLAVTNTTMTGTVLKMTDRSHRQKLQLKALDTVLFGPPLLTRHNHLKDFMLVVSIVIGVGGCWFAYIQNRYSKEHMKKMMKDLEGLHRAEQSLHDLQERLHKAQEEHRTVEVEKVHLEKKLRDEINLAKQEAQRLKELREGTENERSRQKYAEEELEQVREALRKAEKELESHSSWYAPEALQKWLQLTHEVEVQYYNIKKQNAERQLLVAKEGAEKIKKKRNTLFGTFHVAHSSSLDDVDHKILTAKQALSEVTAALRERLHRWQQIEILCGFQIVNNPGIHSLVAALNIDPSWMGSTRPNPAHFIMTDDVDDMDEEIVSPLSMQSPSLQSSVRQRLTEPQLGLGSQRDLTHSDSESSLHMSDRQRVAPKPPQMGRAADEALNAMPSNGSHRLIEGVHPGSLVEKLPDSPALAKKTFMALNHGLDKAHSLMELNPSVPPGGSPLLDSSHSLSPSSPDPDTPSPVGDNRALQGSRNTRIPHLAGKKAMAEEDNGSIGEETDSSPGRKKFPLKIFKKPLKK
# UniProt Q80SW1: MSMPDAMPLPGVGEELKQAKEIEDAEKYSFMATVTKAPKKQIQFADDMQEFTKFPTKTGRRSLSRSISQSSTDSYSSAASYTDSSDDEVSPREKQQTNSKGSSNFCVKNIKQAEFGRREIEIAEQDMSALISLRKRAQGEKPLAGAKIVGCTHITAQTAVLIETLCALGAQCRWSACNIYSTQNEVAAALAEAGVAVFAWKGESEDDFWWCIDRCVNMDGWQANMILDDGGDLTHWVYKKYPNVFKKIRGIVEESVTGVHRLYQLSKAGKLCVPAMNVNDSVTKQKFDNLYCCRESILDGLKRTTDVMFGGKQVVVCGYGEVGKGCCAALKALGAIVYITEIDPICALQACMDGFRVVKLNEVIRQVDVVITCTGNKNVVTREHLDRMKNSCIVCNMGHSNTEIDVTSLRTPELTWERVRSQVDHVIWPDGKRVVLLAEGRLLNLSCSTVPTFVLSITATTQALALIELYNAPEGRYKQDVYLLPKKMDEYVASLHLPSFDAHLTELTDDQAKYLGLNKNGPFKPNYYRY
# UniProt Q8BRF7: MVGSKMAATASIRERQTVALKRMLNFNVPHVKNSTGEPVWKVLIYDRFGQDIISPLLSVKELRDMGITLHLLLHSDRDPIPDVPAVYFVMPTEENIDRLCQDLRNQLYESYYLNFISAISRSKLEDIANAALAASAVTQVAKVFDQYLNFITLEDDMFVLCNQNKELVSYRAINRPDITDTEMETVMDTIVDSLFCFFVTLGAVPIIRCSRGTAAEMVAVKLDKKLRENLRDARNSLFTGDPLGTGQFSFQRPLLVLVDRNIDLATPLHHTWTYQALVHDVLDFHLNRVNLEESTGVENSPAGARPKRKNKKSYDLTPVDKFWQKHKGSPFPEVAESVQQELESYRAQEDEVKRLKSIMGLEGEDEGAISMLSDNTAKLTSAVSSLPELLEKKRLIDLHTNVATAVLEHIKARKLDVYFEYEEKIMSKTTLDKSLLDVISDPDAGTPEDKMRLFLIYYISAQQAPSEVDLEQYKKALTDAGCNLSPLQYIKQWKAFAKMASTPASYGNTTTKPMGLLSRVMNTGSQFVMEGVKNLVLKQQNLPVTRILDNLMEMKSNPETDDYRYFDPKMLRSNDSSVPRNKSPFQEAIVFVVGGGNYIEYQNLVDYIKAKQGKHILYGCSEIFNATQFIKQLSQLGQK
# UniProt Q80U72: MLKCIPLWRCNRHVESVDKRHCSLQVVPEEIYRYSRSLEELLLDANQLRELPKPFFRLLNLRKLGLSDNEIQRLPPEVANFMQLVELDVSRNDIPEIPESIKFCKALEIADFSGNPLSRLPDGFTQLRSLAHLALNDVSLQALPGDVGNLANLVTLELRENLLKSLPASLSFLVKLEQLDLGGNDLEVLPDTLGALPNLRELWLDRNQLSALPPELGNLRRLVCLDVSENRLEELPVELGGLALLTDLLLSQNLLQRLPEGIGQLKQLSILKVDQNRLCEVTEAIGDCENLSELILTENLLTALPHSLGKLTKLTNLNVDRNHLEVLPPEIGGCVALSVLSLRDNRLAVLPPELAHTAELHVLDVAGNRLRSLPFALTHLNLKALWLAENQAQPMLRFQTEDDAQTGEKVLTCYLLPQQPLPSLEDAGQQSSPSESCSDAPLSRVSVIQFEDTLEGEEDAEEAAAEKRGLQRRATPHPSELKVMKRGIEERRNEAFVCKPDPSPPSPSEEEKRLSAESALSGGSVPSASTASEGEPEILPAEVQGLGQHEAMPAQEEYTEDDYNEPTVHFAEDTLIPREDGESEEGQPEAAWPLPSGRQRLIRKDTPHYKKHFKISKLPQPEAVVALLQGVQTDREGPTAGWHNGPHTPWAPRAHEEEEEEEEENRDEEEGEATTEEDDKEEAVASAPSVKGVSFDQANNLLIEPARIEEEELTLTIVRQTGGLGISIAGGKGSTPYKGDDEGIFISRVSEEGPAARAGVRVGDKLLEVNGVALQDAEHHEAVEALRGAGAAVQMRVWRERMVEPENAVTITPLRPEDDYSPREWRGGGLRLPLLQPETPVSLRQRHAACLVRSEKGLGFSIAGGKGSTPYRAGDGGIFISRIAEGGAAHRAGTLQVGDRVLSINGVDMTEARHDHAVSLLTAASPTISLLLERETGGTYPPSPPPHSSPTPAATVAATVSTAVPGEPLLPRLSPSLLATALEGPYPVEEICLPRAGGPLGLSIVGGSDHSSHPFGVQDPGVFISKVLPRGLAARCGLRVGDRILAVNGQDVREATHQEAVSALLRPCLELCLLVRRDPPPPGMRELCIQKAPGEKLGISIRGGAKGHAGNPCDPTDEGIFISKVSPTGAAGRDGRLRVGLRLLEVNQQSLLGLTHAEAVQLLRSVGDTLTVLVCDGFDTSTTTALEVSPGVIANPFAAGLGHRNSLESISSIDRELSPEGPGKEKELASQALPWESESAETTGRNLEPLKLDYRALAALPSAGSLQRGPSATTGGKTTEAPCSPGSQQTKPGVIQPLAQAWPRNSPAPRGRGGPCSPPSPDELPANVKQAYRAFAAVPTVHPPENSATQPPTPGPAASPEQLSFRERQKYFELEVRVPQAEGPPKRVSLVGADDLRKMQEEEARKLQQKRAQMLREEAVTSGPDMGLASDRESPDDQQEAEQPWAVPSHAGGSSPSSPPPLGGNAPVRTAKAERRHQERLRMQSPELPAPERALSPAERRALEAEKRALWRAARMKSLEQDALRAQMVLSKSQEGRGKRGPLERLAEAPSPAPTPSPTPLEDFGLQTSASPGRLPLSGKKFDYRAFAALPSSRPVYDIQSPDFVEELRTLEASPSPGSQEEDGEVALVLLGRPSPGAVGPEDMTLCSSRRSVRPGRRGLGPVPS
# UniProt P70424, residues 23-1256: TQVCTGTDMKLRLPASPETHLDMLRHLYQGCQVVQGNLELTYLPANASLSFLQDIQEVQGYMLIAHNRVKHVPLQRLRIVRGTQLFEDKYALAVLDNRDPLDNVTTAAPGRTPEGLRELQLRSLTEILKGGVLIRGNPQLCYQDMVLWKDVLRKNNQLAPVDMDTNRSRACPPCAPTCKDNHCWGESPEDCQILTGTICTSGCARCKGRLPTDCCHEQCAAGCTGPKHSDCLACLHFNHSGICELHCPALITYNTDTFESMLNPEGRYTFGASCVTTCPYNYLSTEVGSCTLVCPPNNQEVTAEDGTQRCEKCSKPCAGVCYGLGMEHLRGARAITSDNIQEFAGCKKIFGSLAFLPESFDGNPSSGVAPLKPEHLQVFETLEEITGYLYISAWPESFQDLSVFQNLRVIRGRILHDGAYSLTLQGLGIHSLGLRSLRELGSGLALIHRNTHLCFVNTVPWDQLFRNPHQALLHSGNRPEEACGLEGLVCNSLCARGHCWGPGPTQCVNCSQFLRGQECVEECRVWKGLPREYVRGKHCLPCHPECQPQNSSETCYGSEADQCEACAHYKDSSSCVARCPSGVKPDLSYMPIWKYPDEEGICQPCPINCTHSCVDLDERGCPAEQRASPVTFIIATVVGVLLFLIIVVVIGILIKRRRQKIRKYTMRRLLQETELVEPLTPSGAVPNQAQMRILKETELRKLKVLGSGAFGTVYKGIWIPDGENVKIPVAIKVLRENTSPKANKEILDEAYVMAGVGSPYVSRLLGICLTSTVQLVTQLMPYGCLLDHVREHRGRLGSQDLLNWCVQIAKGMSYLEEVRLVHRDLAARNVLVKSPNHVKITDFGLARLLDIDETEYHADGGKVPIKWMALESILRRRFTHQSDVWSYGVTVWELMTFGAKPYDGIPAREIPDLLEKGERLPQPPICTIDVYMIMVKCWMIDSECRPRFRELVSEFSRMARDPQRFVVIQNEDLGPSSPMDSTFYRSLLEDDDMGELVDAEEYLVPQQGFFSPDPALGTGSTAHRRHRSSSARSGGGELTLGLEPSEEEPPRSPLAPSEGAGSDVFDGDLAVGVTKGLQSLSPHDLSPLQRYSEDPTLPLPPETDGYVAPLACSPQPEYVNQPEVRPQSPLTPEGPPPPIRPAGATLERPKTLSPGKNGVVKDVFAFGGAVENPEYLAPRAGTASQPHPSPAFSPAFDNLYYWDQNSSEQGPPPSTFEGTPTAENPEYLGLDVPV
# UniProt Q9R1X5: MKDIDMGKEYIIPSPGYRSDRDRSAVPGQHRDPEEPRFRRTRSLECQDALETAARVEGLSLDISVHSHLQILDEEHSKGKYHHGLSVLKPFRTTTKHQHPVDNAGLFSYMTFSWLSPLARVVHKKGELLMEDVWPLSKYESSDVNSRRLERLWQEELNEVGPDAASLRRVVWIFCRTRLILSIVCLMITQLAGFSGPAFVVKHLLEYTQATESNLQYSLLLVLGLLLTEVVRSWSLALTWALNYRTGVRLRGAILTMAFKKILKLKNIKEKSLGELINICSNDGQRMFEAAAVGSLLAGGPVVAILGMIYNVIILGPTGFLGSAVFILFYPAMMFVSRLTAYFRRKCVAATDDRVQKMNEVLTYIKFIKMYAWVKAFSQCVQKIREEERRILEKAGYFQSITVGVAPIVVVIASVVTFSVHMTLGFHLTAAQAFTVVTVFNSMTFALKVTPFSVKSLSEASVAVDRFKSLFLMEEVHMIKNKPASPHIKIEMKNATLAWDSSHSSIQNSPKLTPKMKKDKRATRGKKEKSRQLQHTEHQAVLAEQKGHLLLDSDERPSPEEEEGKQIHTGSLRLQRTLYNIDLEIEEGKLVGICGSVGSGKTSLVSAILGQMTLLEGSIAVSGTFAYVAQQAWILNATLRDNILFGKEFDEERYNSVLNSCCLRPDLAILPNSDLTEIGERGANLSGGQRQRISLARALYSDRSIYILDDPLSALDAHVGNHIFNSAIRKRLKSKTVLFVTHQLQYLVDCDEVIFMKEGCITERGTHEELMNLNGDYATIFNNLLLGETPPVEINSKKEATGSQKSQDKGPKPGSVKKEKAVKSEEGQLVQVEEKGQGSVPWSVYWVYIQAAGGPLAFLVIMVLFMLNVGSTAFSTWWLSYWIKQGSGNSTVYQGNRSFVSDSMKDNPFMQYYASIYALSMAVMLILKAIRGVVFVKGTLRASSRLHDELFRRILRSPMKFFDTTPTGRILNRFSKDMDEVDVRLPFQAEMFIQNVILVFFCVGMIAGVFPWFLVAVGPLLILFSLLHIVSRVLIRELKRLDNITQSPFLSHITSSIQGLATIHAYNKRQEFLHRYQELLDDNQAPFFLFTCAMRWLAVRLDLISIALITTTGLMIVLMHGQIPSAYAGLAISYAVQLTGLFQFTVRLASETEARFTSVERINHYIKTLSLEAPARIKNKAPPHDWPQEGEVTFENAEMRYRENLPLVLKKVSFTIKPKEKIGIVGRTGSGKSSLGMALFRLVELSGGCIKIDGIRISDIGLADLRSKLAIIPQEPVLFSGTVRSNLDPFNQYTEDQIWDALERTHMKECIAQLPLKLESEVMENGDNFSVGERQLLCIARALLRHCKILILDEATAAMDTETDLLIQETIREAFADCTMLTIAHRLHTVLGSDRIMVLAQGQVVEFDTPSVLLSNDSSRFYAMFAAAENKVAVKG
# Columns and labels:
# [1] = biological target: KCa3.1-FLAG-TurboID (mouse) (UniProt O89109); assay: proximity labelling; TurboID in intact KPC cells: KCa3.1-FLAG-TurboID induced with 1 ug/mL doxycycline for 24 h, 50 uM biotin for 3 h, RIPA lysis, streptavidin beads, TMT mass spectrometry; control cells with FLAG-TurboID; three independent repeats; hit: FDR below 5% and 1.5-fold change
# [2] = biological target: KCa3.1-FLAG-TurboID (mouse) (UniProt O89109); assay: as above; remark: listed apart in the source
binding [1],binding [2],Molecule
binds,,STIM2 (from UniProt P83093 15-746)
binds,,STIM1 (in KPC cells) (from UniProt P70302 23-685)
binds,,"AHCYL1, adenosylhomocysteine hydrolase-like protein 1 (from UniProt Q80SW1 1-530)"
binds,,SCFD1 (from UniProt Q8BRF7 1-639)
binds,,SCRIB (from UniProt Q80U72 1-1665)
binds,,ERBIN (from UniProt Q80TH2 1-1402)
binds,,APC (from UniProt Q61315 1-2845)
binds,,ERBB2 (HER2) (from UniProt P70424 23-1256) (receptor)
,binds,"USE1 (protein, UniProt Q9CQ56 1-270) MAQAEGAYHRPLATSRLELNLVRLLCRCESMAAEKREPDEWRLEKYVGALEDMLQALKVQASKPASEVISEYSRKVDFLKGMLQAEKLTSSSEKALANQFLAPGRVPTTAKERVPATKTVHLQSRARYTSEMRSELLGMEPSGECEVDMRKRAAKGSRPADERQSASELDLVLQRHQGLQEKLAEEMLGLARSLKTNTLAAQSVIKKDNQTLSHSLKMADQNLEKLKLESERLEQHAQKSVNWLLWAMLIVVCFVFISMILFIRIMPRLK"
,binds,"USP8 (enzyme, UniProt Q80U87 1-1080) MPAVASVPKELYLSSSLKDLNKKTEVKPEKTSTKNYIHSAQKIFKTAEECRLDRDEERAYVLYMKYVAVYNLIKKRPDFKQQQDYYLSILGPANIKKAIEEAERLSESLKLRYEEAEVRKQLEEKDRREEEQLQQQKRQEMGREDSGAAAKRSVENLLDSKTKTQRINGEKSEGAAAAERGAITAKELYTMMMDKNTSLIIMDARKIQDYQHSCILDSLSVPEEAISPGVTASWIEANLSDDSKDTWKKRGSVDYVVLLDWFSSAKDLLLGTTLRSLKDALFKWESKTVLRHEPLVLEGGYENWLLCYPQFTTNAKVTPPPRSRAEEVSVSLDFTYPSLEEPVPSKLPTQMPPPPIETNEKALLVTDQDEKLRLSTQPALAGPGAAPRAEASPIIQPAPATKSVPQVDRTKKPSVKLPEDHRIKSENTDQSGRVLSDRSTKPVFPSPTTMLTDEEKARIHQETALLMEKNKQEKELWDKQQKEQKEKLRREEQERKAGKTQDADERDSTENQHKAKDGQEKKDSKQTKTEDRELSADGAQEATGTQRQSKSEHEASDAKVPVEGKRCPTSEAQKRPADVSPASVSGELNAGKAQREPLTRARSEEMGRIVPGLPLGWAKFLDPITGTFRYYHSPTNTVHMYPPEMAPSSAPPSTPPTHKVKPQVPAERDREPSKLKRSYSSPDITQALQEEEKRRPAVTPMVNRENKPPCYPKAEISRLSASQIRNLNPVFGGSGPALTGLRNLGNTCYMNSILQCLCNAPHLADYFNRNCYQDDINRSNLLGHKGEVAEEFGIIMKALWTGQYRYISPKDFKVTIGKINDQFAGSSQQDSQELLLFLMDGLHEDLNKADNRKRHKEENNEHLDDLQAAEHAWQKHKQLNESIIVALFQGQFKSTVQCLTCRRRSRTFEAFMYLSLPLASTSKCTLQDCLRLFSKEEKLTDNNRFYCSHCRARRDSLKKIEIWKLPPVLLVHLKRFSYDGRWKQKLQTSVDFPLENLDLSQYVIGPKNSLKKYNLFSVSNHYGGLDGGHYTAYCKNAARQRWFKFDDHEVSDISVSSVRSSAAYILFYTSLGPRITDVAT"
,binds,"CTNND1 (p120-catenin) (protein, UniProt P30999 1-938) MDDSEVESTASILASVKEQEAQFEKLTRALEEERRHVSAQLERVRVSPQDANSLMANGTLTRRHQNGRFVGDADLERQKFSDLKLNGPQDHNHLLYSTIPRMQEPGQIVETYTEEDPEGAMSVVSVETTDDGTTRRTETTVKKVVKTMTTRTVQPVPMGPDGLPVDASAVSNNYIQTLGRDFRKNGNGGPGPYVGQAGTATLPRNFHYPPDGYGRHYEDGYPGGSDNYGSLSRVTRIEERYRPSMEGYRAPSRQDVYGPQPQVRVGGSSVDLHRFHPEPYGLEDDQRSMGYDDLDYGMMSDYGTARRTGTPSDPRRRLRSYEDMIGEEVPPDQYYWAPLAQHERGSLASLDSLRKGMPPPSNWRQPELPEVIAMLGFRLDAVKSNAAAYLQHLCYRNDKVKTDVRKLKGIPILVGLLDHPKKEVHLGACGALKNISFGRDQDNKIAIKNCDGVPALVRLLRKARDMDLTEVITGTLWNLSSHDSIKMEIVDHALHALTDEVIIPHSGWEREPNEDCKPRHIEWESVLTNTAGCLRNVSSERSEARRKLRECDGLVDALIFIVQAEIGQKDSDSKLVENCVCLLRNLSYQVHREIPQAERYQEALPTVANSTGPHAASCFGAKKGKDEWFSRGKKPTEDPANDTVDFPKRTSPARGYELLFQPEVVRIYISLLKESKTPAILEASAGAIQNLCAGRWTYGRYIRSALRQEKALSAIAELLTSEHERVVKAASGALRNLAVDARNKELIGKHAIPNLVKNLPGGQQNSSWNFSEDTVVSILNTINEVIAENLEAAKKLRETQGIEKLVLINKSGNRSEKEVRAAALVLQTIWGYKELRKPLEKEGWKKSDFQVNLNNASRSQSSHSYDDSTLPLIDRNQKSDKKPDREEIPMSNMGSNTKSLDNNYSTLNERGDHNRTLDRSGDLGDMEPLKGAPLMQKI"

# The remaining lines, values behind:
Molecule,binding [1],binding [2]
MET (from UniProt P16056 25-1379) (receptor),binds,
CTNNB1 (β-catenin) (from UniProt Q02248 1-781),binds,
DISP1 (from UniProt Q3TDN0 1-1521),binds,
ABCC5 (from UniProt Q9R1X5 1-1436),binds,
"PTPN14 (enzyme, UniProt Q62130 1-1189) MPFGLKLRRTRRYNVLSKNCFVTRIRLLDSNVIECTLSVESTGQECLEAVAQRLELRETHYFGLWFLSKSQQARWVELEKPLKKHLDKFANEPLLFFGVMFYVPNVSRLQQEATRYQYYLQVKKDVLEGRLRCSLEQVIRLAGLAVQADFGDYNQFDSQEFLREYVLFPMDLAMEEAALEELTQKVAQEHKAHSGILPAEAELMYINEVERLDGFGQEIFPVKDSHGNSVHLGIFFMGIFVRNRVGRQAVIYRWNDIGSVTHSKAAILLELIDKEETALFHTDDIENAKYISRLFTTRHKFYKQNKICTEQSNSPPPIRRQPTWSRSSLPRQQPYILPPMHVQCSEHYSETHTSQDSIFPGNEEALYCRSHNSLDLNYLNGTVTNGSVCSVHSVNSLSCSQSFIQASPVSSNLSIPGSDIMRADYIPSHRHSTIIVPSYRPTPDYETVMRQMKRGLMHADSQSRSLRNLNIINTHAYNQPEELVYSQPEMRERHPYTVPYAHQGCYGHKLVSPSDQMNPQNCAMPIKPGASSISHTVSTPELANMQLQGAQHYSTAHMLKNYLFRPPPPYPRPRPATSTPDLASHRHKYVSGSSPDLVTRKVQLSVKTFQEDSSPVVHQSLQEVSEPLTATKHHGGGGGTVNKRHSLEVMNSMVRGMEAMTLKSLNIPMARRNTLREQGPSEETGGHEVHGLPQYHHKKTFSDATMLIHSSESEEEEETLEAAPQVPVLREKVEYSAQLQAALARIPNRPPPEYPGPRKSVSNGALRQDQGTPLPAMARCRVLRHGPSKALSVSRAEQLAVNGASLGPSISEPDLTSVKERVKKEPVKERPVSEMFSLEDSIIEREMMIRNLEKQKMTGPQAQKRPLMLAALNGLSVARVSGREDGHHDATRVPIDERLRALKKKLEDGMVFTEYEQIPNKKANGVFSTATLPENAERSRIREVVPYEENRVELIPTKENNTGYINASHIKVVVGGSEWHYIATQGPLPHTCHDFWQMVWEQGVNVIAMVTAEEEGGRTKSHRYWPKLGSKHSSATYGKFKVTTKFRTDSGCYATTGLKVKHLLSGQERTVWHLQYTDWPHHGCPEDVQGFLSYLEEIQSVRRHTNSVLEGIRTRHPPIVVHCSAGVGRTGVVILSELMIYCLEHNEKVEVPTMLRFLREQRMFMIQTIAQYKFVYQVLVQFLQNSRLI",,binds
"TSG101 (tumor susceptibility gene 101) (protein, UniProt Q61187 1-391) MAVSESQLKKMMSKYKYRDLTVRQTVNVIAMYKDLKPVLDSYVFNDGSSRELVNLTGTIPVRYRGNIYNIPICLWLLDTYPYNPPICFVKPTSSMTIKTGKHVDANGKIYLPYLHDWKHPRSELLELIQIMIVIFGEEPPVFSRPTVSASYPPYTATGPPNTSYMPGMPSGISAYPSGYPPNPSGYPGCPYPPAGPYPATTSSQYPSQPPVTTVGPSRDGTISEDTIRASLISAVSDKLRWRMKEEMDGAQAELNALKRTEEDLKKGHQKLEEMVTRLDQEVAEVDKNIELLKKKDEELSSALEKMENQSENNDIDEVIIPTAPLYKQILNLYAEENAIEDTIFYLGEALRRGVIDLDVFLKHVRLLSRKQFQLRALMQKARKTAGLSDLY",,binds
"WW domain-containing oxidoreductase (WWOX) (protein, UniProt Q91WL8 1-414) MAALRYAGLDDTDSEDELPPGWEERTTKDGWVYYANHTEEKTQWEHPKTGKRKRVAGDLPYGWEQETDENGQVFFVDHINKRTTYLDPRLAFTVDDNPTKPTTRQRYDGSTTAMEILQGRDFTGKVVLVTGANSGIGFETAKSFALHGAHVILACRNLSRASEAVSRILEEWHKAKVEAMTLDLAVLRSVQHFAEAFKAKNVSLHVLVCNAGTFALPWGLTKDGLETTFQVNHLGHFYLVQLLQDVLCRSSPARVIVVSSESHRFTDINDSSGKLDLSRLSPPRSDYWAMLAYNRSKLCNILFSNELHRRLSPRGVTSNAVHPGNMMYSAIHRNSWVYKLLFTLARPFTKSMQQGAATTVYCAVAPELEGLGGMYFNNCCRCLPSEEAQSEETARALWELSERLIQDRLGSPSS",,binds

# Like-named read-outs stand apart in the source and are kept apart here. These are yes or no findings as the source states them, for the method shown. In cells and extracts the contact can be indirect. Here binding means that the protein was enriched with, or labelled near, the bait; the list need not be complete.
